Experimental data from the supplement of paper PMC12823440, “Inhibitors supercharge kinase turnover through native proteolytic circuits” (Nature, 2025).
Where a name gives a salt, the structure may show the parent alone. This is one part of the list. The calls rarely recur for the same compound in another form.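 Kinases were expressed as nanoluciferase fusions in K562 cells and luminescence was read every 4 h between 2 and 18 h as percent of control, DMSO set to 100% and a positive control to 0%. A time point counts as decreased when the signal drops significantly (2 sigma). The hit call is the authors' own, does not follow from the count of time points alone, and its rule is not shown.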

Amino acid sequences for entries named in this document (tags omitted). A change or cut given only in a name is not applied to a line headed by its entry.
UniProt Q05397, whole entry, looked up: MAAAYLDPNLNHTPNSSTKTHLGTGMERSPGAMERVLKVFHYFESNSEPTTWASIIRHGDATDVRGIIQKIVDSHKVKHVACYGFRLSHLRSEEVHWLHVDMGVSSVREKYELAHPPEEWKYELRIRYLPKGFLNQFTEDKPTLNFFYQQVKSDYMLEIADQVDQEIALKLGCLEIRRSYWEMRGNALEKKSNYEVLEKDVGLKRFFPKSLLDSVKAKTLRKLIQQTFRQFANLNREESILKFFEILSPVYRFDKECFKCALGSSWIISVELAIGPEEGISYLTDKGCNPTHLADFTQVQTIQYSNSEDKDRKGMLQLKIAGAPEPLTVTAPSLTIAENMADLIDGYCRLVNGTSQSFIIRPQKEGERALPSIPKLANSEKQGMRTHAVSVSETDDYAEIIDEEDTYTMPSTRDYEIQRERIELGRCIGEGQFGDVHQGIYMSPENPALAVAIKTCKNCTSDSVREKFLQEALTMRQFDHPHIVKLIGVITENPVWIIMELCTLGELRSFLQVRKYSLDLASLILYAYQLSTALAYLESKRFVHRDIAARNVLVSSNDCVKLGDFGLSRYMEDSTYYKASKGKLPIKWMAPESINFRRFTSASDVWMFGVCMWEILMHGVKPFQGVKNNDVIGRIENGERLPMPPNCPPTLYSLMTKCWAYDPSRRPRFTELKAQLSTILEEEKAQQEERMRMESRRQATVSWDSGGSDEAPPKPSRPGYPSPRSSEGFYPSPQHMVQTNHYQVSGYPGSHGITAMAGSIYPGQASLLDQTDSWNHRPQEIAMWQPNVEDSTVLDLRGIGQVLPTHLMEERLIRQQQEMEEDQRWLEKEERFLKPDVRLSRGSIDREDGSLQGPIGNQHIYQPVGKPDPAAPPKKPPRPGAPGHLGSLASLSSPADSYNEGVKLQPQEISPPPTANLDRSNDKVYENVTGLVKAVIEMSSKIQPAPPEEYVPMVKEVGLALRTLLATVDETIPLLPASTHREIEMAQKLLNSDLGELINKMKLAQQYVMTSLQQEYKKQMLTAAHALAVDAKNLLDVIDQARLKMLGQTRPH
UniProt Q14289, whole entry, looked up: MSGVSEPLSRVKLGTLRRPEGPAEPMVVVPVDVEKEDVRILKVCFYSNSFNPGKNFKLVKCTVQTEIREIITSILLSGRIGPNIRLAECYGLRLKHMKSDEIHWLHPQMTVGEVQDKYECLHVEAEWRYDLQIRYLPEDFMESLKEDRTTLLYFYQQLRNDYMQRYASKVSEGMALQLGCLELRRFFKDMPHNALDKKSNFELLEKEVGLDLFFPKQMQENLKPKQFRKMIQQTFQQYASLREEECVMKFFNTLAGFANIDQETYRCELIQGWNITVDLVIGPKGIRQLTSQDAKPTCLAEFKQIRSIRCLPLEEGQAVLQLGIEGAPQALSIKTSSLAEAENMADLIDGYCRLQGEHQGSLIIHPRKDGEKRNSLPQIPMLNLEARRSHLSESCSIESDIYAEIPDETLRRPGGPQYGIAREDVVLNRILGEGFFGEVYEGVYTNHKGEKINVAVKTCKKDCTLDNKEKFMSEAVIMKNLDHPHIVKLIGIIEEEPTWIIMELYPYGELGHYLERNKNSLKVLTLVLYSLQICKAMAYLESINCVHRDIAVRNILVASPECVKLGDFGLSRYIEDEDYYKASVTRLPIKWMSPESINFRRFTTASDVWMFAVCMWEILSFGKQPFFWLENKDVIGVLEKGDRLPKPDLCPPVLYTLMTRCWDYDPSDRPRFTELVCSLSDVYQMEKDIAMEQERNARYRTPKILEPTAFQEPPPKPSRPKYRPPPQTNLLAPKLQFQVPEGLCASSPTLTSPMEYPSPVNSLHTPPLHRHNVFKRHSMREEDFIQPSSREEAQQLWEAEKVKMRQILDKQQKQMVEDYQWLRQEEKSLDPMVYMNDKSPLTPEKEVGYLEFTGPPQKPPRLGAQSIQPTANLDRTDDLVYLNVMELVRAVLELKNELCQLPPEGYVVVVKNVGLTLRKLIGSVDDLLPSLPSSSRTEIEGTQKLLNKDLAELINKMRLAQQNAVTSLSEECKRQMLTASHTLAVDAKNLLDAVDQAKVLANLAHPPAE
UniProt P07949, whole entry, looked up: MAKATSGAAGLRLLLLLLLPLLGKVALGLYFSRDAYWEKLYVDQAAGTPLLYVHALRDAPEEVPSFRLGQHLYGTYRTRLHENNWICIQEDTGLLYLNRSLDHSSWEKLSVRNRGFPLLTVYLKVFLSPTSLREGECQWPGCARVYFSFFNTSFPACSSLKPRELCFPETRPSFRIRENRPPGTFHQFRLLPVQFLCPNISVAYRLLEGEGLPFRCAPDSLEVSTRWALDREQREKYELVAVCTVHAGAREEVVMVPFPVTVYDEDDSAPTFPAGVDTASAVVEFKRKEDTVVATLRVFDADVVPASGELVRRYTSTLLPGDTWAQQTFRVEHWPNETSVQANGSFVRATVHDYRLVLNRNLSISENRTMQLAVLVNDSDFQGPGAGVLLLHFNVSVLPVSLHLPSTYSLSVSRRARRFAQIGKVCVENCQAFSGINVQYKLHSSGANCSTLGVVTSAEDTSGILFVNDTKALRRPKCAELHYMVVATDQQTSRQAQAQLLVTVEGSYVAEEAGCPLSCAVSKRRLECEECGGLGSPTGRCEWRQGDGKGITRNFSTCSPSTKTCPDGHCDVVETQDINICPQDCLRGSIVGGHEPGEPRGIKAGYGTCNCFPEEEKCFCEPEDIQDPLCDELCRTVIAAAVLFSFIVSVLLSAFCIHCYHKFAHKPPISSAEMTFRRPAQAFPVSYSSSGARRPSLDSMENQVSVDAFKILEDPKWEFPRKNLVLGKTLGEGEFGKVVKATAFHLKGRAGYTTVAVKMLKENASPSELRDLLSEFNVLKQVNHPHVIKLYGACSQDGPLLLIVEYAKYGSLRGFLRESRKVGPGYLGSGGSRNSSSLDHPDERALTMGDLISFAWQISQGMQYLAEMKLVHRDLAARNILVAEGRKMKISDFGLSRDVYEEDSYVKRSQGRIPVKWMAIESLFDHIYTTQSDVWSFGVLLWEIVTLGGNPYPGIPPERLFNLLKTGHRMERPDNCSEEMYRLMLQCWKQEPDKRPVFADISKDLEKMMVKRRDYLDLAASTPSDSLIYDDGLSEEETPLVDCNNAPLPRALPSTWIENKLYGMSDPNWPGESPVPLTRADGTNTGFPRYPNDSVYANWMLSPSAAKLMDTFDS
UniProt P07949, whole entry M918T, looked up: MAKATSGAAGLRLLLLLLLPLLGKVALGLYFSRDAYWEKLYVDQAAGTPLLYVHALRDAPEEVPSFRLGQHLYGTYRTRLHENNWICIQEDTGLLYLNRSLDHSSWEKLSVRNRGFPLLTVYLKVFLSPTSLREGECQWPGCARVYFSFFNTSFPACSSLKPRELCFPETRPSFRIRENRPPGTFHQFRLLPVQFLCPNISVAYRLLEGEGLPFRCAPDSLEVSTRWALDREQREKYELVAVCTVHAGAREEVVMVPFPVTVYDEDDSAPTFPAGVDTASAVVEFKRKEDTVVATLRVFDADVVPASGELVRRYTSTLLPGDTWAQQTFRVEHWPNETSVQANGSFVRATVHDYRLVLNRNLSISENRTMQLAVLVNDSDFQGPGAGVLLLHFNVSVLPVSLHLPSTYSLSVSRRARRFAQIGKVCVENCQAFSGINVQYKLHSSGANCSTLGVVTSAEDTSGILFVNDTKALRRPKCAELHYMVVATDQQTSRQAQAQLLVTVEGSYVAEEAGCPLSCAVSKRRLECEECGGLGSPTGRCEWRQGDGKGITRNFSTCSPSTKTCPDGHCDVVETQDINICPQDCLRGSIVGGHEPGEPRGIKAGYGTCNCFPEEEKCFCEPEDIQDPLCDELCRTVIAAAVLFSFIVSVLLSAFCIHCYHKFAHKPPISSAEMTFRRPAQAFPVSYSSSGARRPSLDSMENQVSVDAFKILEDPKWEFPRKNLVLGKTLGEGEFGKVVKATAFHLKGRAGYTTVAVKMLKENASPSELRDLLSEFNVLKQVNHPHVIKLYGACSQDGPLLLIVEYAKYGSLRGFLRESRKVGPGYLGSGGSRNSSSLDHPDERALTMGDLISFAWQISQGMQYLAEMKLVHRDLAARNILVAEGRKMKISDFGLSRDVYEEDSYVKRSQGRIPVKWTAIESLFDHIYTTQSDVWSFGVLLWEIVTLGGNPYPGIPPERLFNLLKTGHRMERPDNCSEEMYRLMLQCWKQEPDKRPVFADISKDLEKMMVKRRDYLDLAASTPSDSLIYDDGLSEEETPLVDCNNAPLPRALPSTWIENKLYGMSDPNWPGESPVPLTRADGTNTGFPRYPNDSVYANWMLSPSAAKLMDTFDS
UniProt Q9BRS2: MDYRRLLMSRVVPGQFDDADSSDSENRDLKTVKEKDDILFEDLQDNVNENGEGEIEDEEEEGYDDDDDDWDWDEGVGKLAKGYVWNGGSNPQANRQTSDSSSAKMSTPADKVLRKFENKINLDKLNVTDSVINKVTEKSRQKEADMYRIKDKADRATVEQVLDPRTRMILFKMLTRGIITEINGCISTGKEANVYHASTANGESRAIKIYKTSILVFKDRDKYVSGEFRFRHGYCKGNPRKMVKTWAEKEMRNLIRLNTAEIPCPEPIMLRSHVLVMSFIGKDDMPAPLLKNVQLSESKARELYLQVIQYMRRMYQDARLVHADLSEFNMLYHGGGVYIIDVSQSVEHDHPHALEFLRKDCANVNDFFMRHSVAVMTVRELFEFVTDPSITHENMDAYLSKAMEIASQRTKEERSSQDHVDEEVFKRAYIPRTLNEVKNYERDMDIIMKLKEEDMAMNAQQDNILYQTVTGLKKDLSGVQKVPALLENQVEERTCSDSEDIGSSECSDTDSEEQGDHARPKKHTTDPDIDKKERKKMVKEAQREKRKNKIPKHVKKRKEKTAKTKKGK
UniProt Q13546: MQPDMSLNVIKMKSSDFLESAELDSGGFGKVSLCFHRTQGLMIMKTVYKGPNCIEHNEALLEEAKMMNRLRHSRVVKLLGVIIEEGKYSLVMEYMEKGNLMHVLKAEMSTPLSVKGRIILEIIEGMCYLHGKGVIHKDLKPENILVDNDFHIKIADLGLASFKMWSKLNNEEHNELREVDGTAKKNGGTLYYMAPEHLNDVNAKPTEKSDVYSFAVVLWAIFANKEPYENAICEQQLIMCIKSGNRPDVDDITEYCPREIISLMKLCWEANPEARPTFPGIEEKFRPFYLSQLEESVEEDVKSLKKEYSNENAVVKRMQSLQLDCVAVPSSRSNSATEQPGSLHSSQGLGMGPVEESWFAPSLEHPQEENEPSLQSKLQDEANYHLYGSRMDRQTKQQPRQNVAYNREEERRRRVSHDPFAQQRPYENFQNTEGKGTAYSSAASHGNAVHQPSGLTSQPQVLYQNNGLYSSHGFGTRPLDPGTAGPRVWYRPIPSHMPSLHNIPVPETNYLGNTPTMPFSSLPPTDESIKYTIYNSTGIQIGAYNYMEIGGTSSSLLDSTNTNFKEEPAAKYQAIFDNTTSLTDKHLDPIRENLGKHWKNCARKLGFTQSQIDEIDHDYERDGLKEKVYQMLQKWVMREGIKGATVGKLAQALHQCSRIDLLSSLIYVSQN

Columns and labels:
Experiment in all cases: number of time points (of 5) at which kinase-Nluc abundance scored as decreased, DMSO-normalised (count); higher = more persistent destabilization
Conditions in all cases: K562; 2-18 h
PRKCA = PRKCA (UniProt P17252)
PTK2 = PTK2 (UniProt Q05397)
PTK2B = PTK2B (UniProt Q14289)
RAF1 = RAF1 (UniProt P04049)
[1] = molecular target: RAF1_S257L (clone: RAF1_mut) (UniProt P04049)
RET = RET (UniProt P07949)
[2] = molecular target: RET_M918T (clone: RET_mut) (UniProt P07949)
RIOK1 = RIOK1 (UniProt Q9BRS2)
RIPK1 = RIPK1 (UniProt Q13546)
RIPK2 = RIPK2 (UniProt O43353)

Row | SMILES | number of time points (PRKCA) | number of time points (PTK2) | number of time points (PTK2B) | number of time points (RAF1) | number of time points [1] | number of time points (RET) | number of time points [2] | number of time points (RIOK1) | number of time points (RIPK1) | number of time points (RIPK2)
1 | CNCc1ccccc1Sc1cccc2ccccc12 [IFN alpha-IFNAR-IN-1 (hydrochloride)] (10 µM) | 0 | 0 | 0 | 2 | 4 | 0 | 0 | 2 | 0 | 2
2 | O=C(O)c1c[nH]c2cc(Cl)c(-c3ccc(C4(O)CCC4)cc3)cc12 (10 µM) | 0 | 0 | 0 | 0 | 0 | 0 | 0 | 0 | 0 | 0
3 | O=C(C#Cc1ccccc1)c1cccc([N+](=O)[O-])c1 (10 µM) | 0 | 0 | 0 | 0 | 0 | 0 | 0 | 0 | 0 | 0
4 | Nc1ccc(C(=O)Nc2cccc(-c3nc(N4CCOCC4)c4oc5ncccc5c4n3)c2)cn1 (10 µM) | 0 | 0 | 0 | 0 | 0 | 0 | 0 | 0 | 0 | 0
5 | CN1CCN(Cc2ccc(-c3cn(C4CCC(O)CC4)c4nc(NCCC5CC5)ncc34)cc2)CC1 (stereo not given) (2.5 µM) | 0 | 1 | 0 | 2 | 2 | 0 | 0 | 1 | 0 | 0
6 | Cc1cccc(-c2nn3c(c2-c2ccnc4ccc(C(N)=O)cc24)CCC3)n1 [Galunisertib] (10 µM) | 0 | 0 | 0 | 0 | 0 | 0 | 0 | 0 | 0 | 0
7 | O=C(O)/C=C(\CCc1ccc(Cl)cc1)c1ccccc1 (10 µM) | 0 | 0 | 0 | 0 | 0 | 0 | 0 | 0 | 0 | 0
8 | CN(C)c1cc[n+](Cc2ccc(OCCOc3ccc(C[n+]4ccc(N(C)C)cc4)cc3)cc2)cc1 (10 µM) | 0 | 0 | 0 | 0 | 0 | 0 | 0 | 0 | 0 | 0
9 | CCn1c(N)c(C(=O)NC)c(=O)c2ccc(C#CC(C)(O)COC)nc21 (stereo not given) (10 µM) | 0 | 0 | 0 | 0 | 0 | 0 | 0 | 0 | 0 | 0
10 | Cc1ccc(Nc2cc(N[C@@H]3CCCC[C@@H]3N)nnc2C(N)=O)nc1C (2 µM) | 0 | 0 | 0 | 0 | 0 | 0 | 0 | 0 | 0 | 0
11 | CS[C@@]1(C(=O)Nc2ccc3[nH]nc(-c4ccc(OC(C)C)nc4)c3c2)CCN(CC(=O)N2CC=C(c3ccc(-c4ncn(C)n4)cc3)CC2)C1 (2.5 µM) | 0 | 0 | 0 | 0 | 0 | 0 | 0 | 0 | 0 | 0
12 | COc1ccc2nc3ccc(OC)cc3c(SCCCN)c2c1 (10 µM) | 0 | 0 | 0 | 0 | 4 | 2 | 0 | 2 | 3 | 4
13 | CN1CCN(Cc2ccc(-c3cnc4[nH]cc(-c5ccc6[nH]ccc6c5)c4c3)cc2)CC1 (2.5 µM) | 0 | 0 | 0 | 0 | 4 | 0 | 0 | 0 | 0 | 0
14 | COc1cccc(-c2cc(=O)c3ccccc3o2)c1N (10 µM) | 0 | 0 | 0 | 0 | 0 | 0 | 0 | 0 | 0 | 0
15 | CCOC(=O)c1c(N2CCc3ccc(OC)cc3C2)oc(C=C2C=Nc3ncccc32)c1O (10 µM) | 0 | 0 | 0 | 0 | 0 | 0 | 0 | 0 | 0 | 0
16 | Cc1cncc2cccc(S(=O)(=O)N3CCCNC[C@@H]3C)c12 [H-1152 (dihydrochloride)] (10 µM) | 0 | 0 | 0 | 0 | 0 | 0 | 0 | 0 | 0 | 0
17 | COc1cc(N2CCC(O)CC2)ccc1Nc1nc(Nc2ccccc2S(=O)(=O)C(C)C)c2[nH]cnc2n1 (10 µM) | 0 | 0 | 0 | 0 | 0 | 0 | 0 | 0 | 0 | 0
18 | COc1ccc(Br)c(C=O)c1O [6-Bromo-2-hydroxy-3-methoxybenzaldehyde] (10 µM) | 0 | 0 | 0 | 0 | 0 | 0 | 0 | 0 | 0 | 0

Row | SMILES | number of time points (PRKCA) | number of time points (PTK2) | number of time points (PTK2B) | number of time points (RAF1) | number of time points [1] | number of time points (RET) | number of time points [2] | number of time points (RIOK1) | number of time points (RIPK1) | number of time points (RIPK2)
19 | O=C1Cc2ccccc2N1 [Oxindole] (10 µM) | 0 | 0 | 0 | 0 | 0 | 0 | 0 | 0 | 0 | 0
20 | COc1c(O)cc(O)c2c(=O)cc(-c3ccccc3)oc12 [Wogonin] (10 µM) | 0 | 0 | 0 | 0 | 0 | 0 | 0 | 0 | 0 | 0
21 | COc1cc2nnc(C(N)=O)c(Nc3ccc(C)cc3F)c2cc1N1CCN(CCO)CC1 (2.5 µM) | 0 | 0 | 0 | 0 | 0 | 0 | 0 | 0 | 0 | 0
22 | Cc1nn(CC(F)(F)F)cc1Nc1ncc(Br)c(NCc2ccc(S(N)(=O)=O)cc2)n1 (10 µM) | 0 | 0 | 0 | 0 | 0 | 0 | 0 | 0 | 0 | 0
23 | CC(C1CC1)n1cnc2c(NCc3cccc(C(F)(F)F)c3)nc(NCCN(C)C)nc21 (stereo not given) (10 µM) | 0 | 0 | 0 | 0 | 0 | 0 | 0 | 0 | 0 | 0
24 | CC(C)=CCC[C@](C)(O[C@@H]1O[C@H](CO[C@@H]2O[C@H](CO)[C@@H](O)[C@H](O)[C@H]2O)[C@@H](O)[C@H](O)[C@H]1O)[C@H]1CC[C@]2(C)[C@@H]1[C@H](O)C[C@@H]1[C@@]3(C)CC[C@H](O[C@@H]4O[C@H](CO)[C@@H](O)[C@H](O)[C@H]4O[C@@H]4O[C@H](CO)[C@@H](O)[C@H](O)[C@H]4O)C(C)(C)[C@@H]3CC[C@]12C [Ginsenoside Rb1] (10 µM) | 0 | 0 | 0 | 0 | 0 | 0 | 0 | 0 | 0 | 0
25 | Cn1cc(-c2nc(N[C@@H]3CCCC[C@@H]3N)c(F)c3c2C(=O)NC3)cn1 [TAK-659 (hydrochloride)] (2 µM) | 0 | 0 | 0 | 0 | 0 | 0 | 0 | 0 | 0 | 0
26 | N#Cc1cnc(Nc2cc(NC[C@H]3CNCCO3)c(C(F)(F)F)cn2)cn1 (10 µM) | 0 | 1 | 0 | 2 | 1 | 2 | 2 | 0 | 0 | 0
27 | COc1cc2nc(NC3CC3)nc(NC3CCN(C(C)C)CC3)c2cc1OC (10 µM) | 0 | 0 | 0 | 1 | 0 | 0 | 0 | 0 | 1 | 0
28 | CC(ONC(=O)c1cc(C(F)(F)F)cc(C(F)(F)F)c1)C(=O)Nc1ccc(Cl)cc1 (stereo not given) (2.5 µM) | 0 | 5 | 0 | 0 | 0 | 0 | 0 | 0 | 0 | 0
29 | O=S(=O)(c1ccc(O)cc1O)N1Cc2cc(O)cc(O)c2C1 (10 µM) | 0 | 0 | 0 | 0 | 0 | 0 | 0 | 0 | 0 | 0
30 | CNC(=O)CN1CCC(Oc2cc3c(Nc4cccc(Cl)c4F)ncnc3cc2OC)CC1 [Sapitinib] (10 µM) | 0 | 0 | 0 | 0 | 0 | 0 | 0 | 0 | 0 | 0
31 | N#C/C(=C/c1ccc(O)c(O)c1)C(=O)N1CCc2ccccc21 [Tyrphostin AG 528] (10 µM) | 0 | 0 | 0 | 0 | 0 | 0 | 0 | 0 | 0 | 0
32 | O=C1CCC(N2C(=O)c3cccc(OCCCCCOc4ccc(CC(=O)Nc5cc(C6CCC6)[nH]n5)cc4)c3C2=O)C(=O)N1 (stereo not given) [PROTAC CDK9 Degrader-1] (10 µM) | 0 | 2 | 0 | 1 | 0 | 0 | 1 | 1 | 2 | 0
33 | C=CC(=O)Nc1cccc(Oc2nc(Nc3ccc(N4CCN(C)CC4)cc3OC)ncc2Cl)c1 (10 µM) | 0 | 0 | 0 | 0 | 0 | 0 | 0 | 0 | 0 | 0
34 | CCOc1cc(N2CCC(O)CC2)ccc1Nc1ncc2c(n1)N(C1CCCC1)CCC(=O)N2C (2.5 µM) | 0 | 0 | 0 | 0 | 0 | 0 | 0 | 0 | 0 | 0
35 | Cc1cc(N2CCOCC2)ccc1Nc1nc(NC2CCCCC2)c2[nH]cnc2n1 (10 µM) | 0 | 0 | 0 | 0 | 0 | 0 | 0 | 0 | 0 | 0
36 | COc1ccc2cc1Oc1ccc(cc1)C[C@H]1c3cc(c(OC)cc3CCN1C)Oc1c(O)c(OC)cc3c1[C@H](C2)N(C)CC3 [Fangchinoline] (2.5 µM) | 0 | 0 | 0 | 0 | 0 | 0 | 0 | 0 | 0 | 0

An excerpt of these results, as tab-separated lines:
Row	SMILES	number of time points (PRKCA)	number of time points (PTK2)	number of time points (PTK2B)	number of time points (RAF1)	number of time points [1]	number of time points (RET)	number of time points [2]	number of time points (RIOK1)	number of time points (RIPK1)	number of time points (RIPK2)
22	Cc1nn(CC(F)(F)F)cc1Nc1ncc(Br)c(NCc2ccc(S(N)(=O)=O)cc2)n1 (10 µM)	0	0	0	0	0	0	0	0	0	0
30	CNC(=O)CN1CCC(Oc2cc3c(Nc4cccc(Cl)c4F)ncnc3cc2OC)CC1 [Sapitinib] (10 µM)	0	0	0	0	0	0	0	0	0	0
